Assay results: paper doi:10.1101/2022.11.23.517591
These are yes or no findings as the source states them, for the method shown. For part of these data: In cells and extracts the contact can be indirect. Some results given as binding are weak or reduced against the parent protein; the word gives no strength. Tags and fused reporters may be left off the sequences shown. One block for each binder: values may come before it.

Key:
[1] = target: T1, AtRGS1 (Regulator of G protein Signaling 1), split-ubiquitin yeast two-hybrid fusion (Arabidopsis thaliana) (UniProt Q8H1F2); assay: two-hybrid
T1 sequence: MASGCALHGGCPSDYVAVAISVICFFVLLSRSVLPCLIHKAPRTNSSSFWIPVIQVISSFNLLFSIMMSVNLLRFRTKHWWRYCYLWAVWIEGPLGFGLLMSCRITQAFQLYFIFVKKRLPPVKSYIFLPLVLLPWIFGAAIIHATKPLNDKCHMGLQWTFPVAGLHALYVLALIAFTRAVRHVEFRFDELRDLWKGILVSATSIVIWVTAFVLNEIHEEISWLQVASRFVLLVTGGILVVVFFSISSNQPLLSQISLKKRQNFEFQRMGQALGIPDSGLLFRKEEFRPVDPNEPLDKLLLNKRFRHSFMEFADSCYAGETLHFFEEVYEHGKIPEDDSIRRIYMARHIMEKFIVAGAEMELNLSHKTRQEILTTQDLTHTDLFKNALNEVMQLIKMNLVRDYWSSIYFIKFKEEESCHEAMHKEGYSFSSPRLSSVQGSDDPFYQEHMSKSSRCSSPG

[2] = target: T2, RGS1-YFP, from the 35S::RGS1-YFP transgenic line (Arabidopsis thaliana) (UniProt Q8H1F2); assay: co-IP
T2 sequence: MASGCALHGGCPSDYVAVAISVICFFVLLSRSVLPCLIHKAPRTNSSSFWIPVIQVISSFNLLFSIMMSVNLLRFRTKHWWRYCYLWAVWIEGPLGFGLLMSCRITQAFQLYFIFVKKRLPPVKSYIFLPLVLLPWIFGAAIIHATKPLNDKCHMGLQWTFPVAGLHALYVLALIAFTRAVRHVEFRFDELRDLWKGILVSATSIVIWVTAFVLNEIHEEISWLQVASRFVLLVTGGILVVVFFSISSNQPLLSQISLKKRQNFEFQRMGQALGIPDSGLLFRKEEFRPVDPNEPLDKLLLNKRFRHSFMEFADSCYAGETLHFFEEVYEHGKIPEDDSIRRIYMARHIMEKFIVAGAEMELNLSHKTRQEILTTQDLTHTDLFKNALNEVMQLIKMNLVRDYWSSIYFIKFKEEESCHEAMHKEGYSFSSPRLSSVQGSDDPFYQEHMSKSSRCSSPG

[3] = target: T3, VAP27-1-GFP, from the 35S:VAP27-1-GFP transgenic plant (Arabidopsis thaliana) (UniProt Q8VZ95); assay: co-IP
T3 sequence: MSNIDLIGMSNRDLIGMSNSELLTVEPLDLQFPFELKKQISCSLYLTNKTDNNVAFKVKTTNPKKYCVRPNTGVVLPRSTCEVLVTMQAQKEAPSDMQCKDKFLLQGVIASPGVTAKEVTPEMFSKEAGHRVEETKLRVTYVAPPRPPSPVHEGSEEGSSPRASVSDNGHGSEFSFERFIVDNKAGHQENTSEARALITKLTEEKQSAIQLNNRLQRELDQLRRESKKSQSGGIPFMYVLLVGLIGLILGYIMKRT

[4] = target: T4, AtRGS1, luciferase complementation fusion (Arabidopsis thaliana) (UniProt Q8H1F2); assay: split reporter
T4 sequence: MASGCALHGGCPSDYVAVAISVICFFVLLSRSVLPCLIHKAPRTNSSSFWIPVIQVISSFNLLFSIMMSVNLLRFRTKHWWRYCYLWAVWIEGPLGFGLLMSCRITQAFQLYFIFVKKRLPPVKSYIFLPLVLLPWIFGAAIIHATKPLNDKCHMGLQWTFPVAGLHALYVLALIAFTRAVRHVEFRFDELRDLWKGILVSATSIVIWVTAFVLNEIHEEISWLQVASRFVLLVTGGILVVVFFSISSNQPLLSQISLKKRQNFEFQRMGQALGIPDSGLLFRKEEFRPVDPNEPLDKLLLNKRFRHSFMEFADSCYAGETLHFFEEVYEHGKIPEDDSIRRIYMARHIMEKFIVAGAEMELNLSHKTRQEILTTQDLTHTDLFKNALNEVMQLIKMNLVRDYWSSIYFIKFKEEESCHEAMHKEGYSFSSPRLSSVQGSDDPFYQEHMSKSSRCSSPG

[5] = target: T5, VAP27-1, Gal4 yeast two-hybrid fusion (Arabidopsis thaliana) (UniProt Q8VZ95); assay: two-hybrid
T5 sequence: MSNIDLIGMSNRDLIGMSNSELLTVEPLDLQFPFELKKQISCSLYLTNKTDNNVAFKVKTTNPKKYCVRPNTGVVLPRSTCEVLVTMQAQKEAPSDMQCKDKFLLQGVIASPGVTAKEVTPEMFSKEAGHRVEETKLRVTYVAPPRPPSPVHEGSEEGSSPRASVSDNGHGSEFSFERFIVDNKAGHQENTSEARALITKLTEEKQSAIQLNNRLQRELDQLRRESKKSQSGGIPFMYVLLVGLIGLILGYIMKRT

[6] = target: T6, VAP27-1, luciferase complementation fusion (Arabidopsis thaliana) (UniProt Q8VZ95); assay: split reporter
T6 sequence: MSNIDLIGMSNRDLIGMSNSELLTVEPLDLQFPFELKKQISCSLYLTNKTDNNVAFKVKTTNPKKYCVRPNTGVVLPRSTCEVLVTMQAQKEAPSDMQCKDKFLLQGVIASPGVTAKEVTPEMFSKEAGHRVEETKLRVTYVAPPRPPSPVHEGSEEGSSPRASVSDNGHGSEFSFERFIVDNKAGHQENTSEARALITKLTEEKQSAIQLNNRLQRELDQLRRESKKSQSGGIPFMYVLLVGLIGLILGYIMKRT

B1: full-length ORP2A (oxysterol-binding protein (OSBP)-related protein 2A), split-ubiquitin yeast two-hybrid fusion (protein, UniProt Q940Y1 1-721)
chain: MRVKELHPLCCITLESPHGINSQSPEEPVTTALTRSRSLPAKSLTGGSESETVAGILYKWTNFGKGWRSRWFLLRNGILSYSKIRRPENLNLLSPDDDVRLIGDISGERLSRMDSCSGRRKQQKTVGIVHLKVSSFRESKSDDRKFYIFTATKTLHLRTDSITDRAAWLQALASTKCIFPLRSLNGDFSFIPPKDLSISTERLKKRLHEEGMNENLVKECEQIMLSEFSEMHGQVKLLHEERTNLLDALRQLEAANLEVGASGKHEFSSLGRGKYSECSTTASSDGKQEFEDVSEEDEPSFHDTKEFFNEPNIGSESNLAISGHTDIKRRTKLPDPAEKEKGVSLWSMIKDNVGKDLTRVCLPVYFNEPISSLQKCFEDLEYSYLLDRAYEHGKSGNGLLRALNVAAFAVSGYASTEGRHCKPFNPLLGETYEADFPEKGIRFFSEKVSHHPTVIACHCEGKGWKFWGDTNLRSKFWGRSIQVEPVGVLTLEFDDGEVFQWSKVTSTIYNIILGKLYCDHHGVMQIRGNRQYSCTLKFKEQSILERNPHQVNGFVEDVAGQKAATIFGKWDDSLYYVAGDGINKSKVSDPASNASLLWKRTKPPPNVTRYNLTSFAITLNELTPGLQEILPPTDSRLRPDQRHLENGEYEKANLEKQRLERRQRMSRQLQESGWRPRWFERQGESDTFKYTGGYWEARGHRNWDDCPDIFGEFTEELADAA
binding [1]: binds

B2: ORP2A-3×Flag (Full-Length), from the 35S::ORP2Ag-3Flag transgenic line (protein, UniProt Q940Y1 1-721)
chain: MRVKELHPLCCITLESPHGINSQSPEEPVTTALTRSRSLPAKSLTGGSESETVAGILYKWTNFGKGWRSRWFLLRNGILSYSKIRRPENLNLLSPDDDVRLIGDISGERLSRMDSCSGRRKQQKTVGIVHLKVSSFRESKSDDRKFYIFTATKTLHLRTDSITDRAAWLQALASTKCIFPLRSLNGDFSFIPPKDLSISTERLKKRLHEEGMNENLVKECEQIMLSEFSEMHGQVKLLHEERTNLLDALRQLEAANLEVGASGKHEFSSLGRGKYSECSTTASSDGKQEFEDVSEEDEPSFHDTKEFFNEPNIGSESNLAISGHTDIKRRTKLPDPAEKEKGVSLWSMIKDNVGKDLTRVCLPVYFNEPISSLQKCFEDLEYSYLLDRAYEHGKSGNGLLRALNVAAFAVSGYASTEGRHCKPFNPLLGETYEADFPEKGIRFFSEKVSHHPTVIACHCEGKGWKFWGDTNLRSKFWGRSIQVEPVGVLTLEFDDGEVFQWSKVTSTIYNIILGKLYCDHHGVMQIRGNRQYSCTLKFKEQSILERNPHQVNGFVEDVAGQKAATIFGKWDDSLYYVAGDGINKSKVSDPASNASLLWKRTKPPPNVTRYNLTSFAITLNELTPGLQEILPPTDSRLRPDQRHLENGEYEKANLEKQRLERRQRMSRQLQESGWRPRWFERQGESDTFKYTGGYWEARGHRNWDDCPDIFGEFTEELADAA
binding [2]: binds | binding [3]: binds

B3: PH domain of ORP2A, luciferase complementation fusion (domain or fragment, UniProt Q940Y1 50-177)
chain: SETVAGILYKWTNFGKGWRSRWFLLRNGILSYSKIRRPENLNLLSPDDDVRLIGDISGERLSRMDSCSGRRKQQKTVGIVHLKVSSFRESKSDDRKFYIFTATKTLHLRTDSITDRAAWLQALASTKC
binding [4]: binds

Now from value to binder:

binding [5]: binds
B4: full-length ORP2A, Gal4 yeast two-hybrid fusion (protein, UniProt Q940Y1 1-721)
chain: MRVKELHPLCCITLESPHGINSQSPEEPVTTALTRSRSLPAKSLTGGSESETVAGILYKWTNFGKGWRSRWFLLRNGILSYSKIRRPENLNLLSPDDDVRLIGDISGERLSRMDSCSGRRKQQKTVGIVHLKVSSFRESKSDDRKFYIFTATKTLHLRTDSITDRAAWLQALASTKCIFPLRSLNGDFSFIPPKDLSISTERLKKRLHEEGMNENLVKECEQIMLSEFSEMHGQVKLLHEERTNLLDALRQLEAANLEVGASGKHEFSSLGRGKYSECSTTASSDGKQEFEDVSEEDEPSFHDTKEFFNEPNIGSESNLAISGHTDIKRRTKLPDPAEKEKGVSLWSMIKDNVGKDLTRVCLPVYFNEPISSLQKCFEDLEYSYLLDRAYEHGKSGNGLLRALNVAAFAVSGYASTEGRHCKPFNPLLGETYEADFPEKGIRFFSEKVSHHPTVIACHCEGKGWKFWGDTNLRSKFWGRSIQVEPVGVLTLEFDDGEVFQWSKVTSTIYNIILGKLYCDHHGVMQIRGNRQYSCTLKFKEQSILERNPHQVNGFVEDVAGQKAATIFGKWDDSLYYVAGDGINKSKVSDPASNASLLWKRTKPPPNVTRYNLTSFAITLNELTPGLQEILPPTDSRLRPDQRHLENGEYEKANLEKQRLERRQRMSRQLQESGWRPRWFERQGESDTFKYTGGYWEARGHRNWDDCPDIFGEFTEELADAA

binding [6]: binds
B5: full-length ORP2A, luciferase complementation fusion (protein, UniProt Q940Y1 1-721)
chain: MRVKELHPLCCITLESPHGINSQSPEEPVTTALTRSRSLPAKSLTGGSESETVAGILYKWTNFGKGWRSRWFLLRNGILSYSKIRRPENLNLLSPDDDVRLIGDISGERLSRMDSCSGRRKQQKTVGIVHLKVSSFRESKSDDRKFYIFTATKTLHLRTDSITDRAAWLQALASTKCIFPLRSLNGDFSFIPPKDLSISTERLKKRLHEEGMNENLVKECEQIMLSEFSEMHGQVKLLHEERTNLLDALRQLEAANLEVGASGKHEFSSLGRGKYSECSTTASSDGKQEFEDVSEEDEPSFHDTKEFFNEPNIGSESNLAISGHTDIKRRTKLPDPAEKEKGVSLWSMIKDNVGKDLTRVCLPVYFNEPISSLQKCFEDLEYSYLLDRAYEHGKSGNGLLRALNVAAFAVSGYASTEGRHCKPFNPLLGETYEADFPEKGIRFFSEKVSHHPTVIACHCEGKGWKFWGDTNLRSKFWGRSIQVEPVGVLTLEFDDGEVFQWSKVTSTIYNIILGKLYCDHHGVMQIRGNRQYSCTLKFKEQSILERNPHQVNGFVEDVAGQKAATIFGKWDDSLYYVAGDGINKSKVSDPASNASLLWKRTKPPPNVTRYNLTSFAITLNELTPGLQEILPPTDSRLRPDQRHLENGEYEKANLEKQRLERRQRMSRQLQESGWRPRWFERQGESDTFKYTGGYWEARGHRNWDDCPDIFGEFTEELADAA
